Measured values reported in PMC9613636.
No constants are given. Whether binding was seen depends on the method and setting. Some binding calls cover weakened binding; strength is not graded here.

By UniProt entry, the sequences of proteins in these tests, tags left out. Residues count along the entry.
UniProt Q86Y34, residues 21-549: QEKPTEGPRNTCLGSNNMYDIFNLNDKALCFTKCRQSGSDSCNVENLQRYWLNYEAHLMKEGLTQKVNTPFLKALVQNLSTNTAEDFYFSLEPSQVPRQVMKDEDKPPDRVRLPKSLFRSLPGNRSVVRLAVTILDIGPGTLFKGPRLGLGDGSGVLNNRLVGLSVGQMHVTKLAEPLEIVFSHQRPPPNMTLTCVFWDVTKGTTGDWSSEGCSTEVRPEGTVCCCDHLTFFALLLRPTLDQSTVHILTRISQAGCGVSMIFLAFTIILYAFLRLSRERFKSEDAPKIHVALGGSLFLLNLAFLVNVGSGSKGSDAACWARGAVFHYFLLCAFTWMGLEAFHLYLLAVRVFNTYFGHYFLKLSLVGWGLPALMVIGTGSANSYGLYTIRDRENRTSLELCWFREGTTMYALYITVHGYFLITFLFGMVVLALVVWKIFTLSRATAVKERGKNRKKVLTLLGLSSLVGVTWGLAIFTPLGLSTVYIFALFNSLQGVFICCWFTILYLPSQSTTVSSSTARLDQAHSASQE

Experiments:
[1] = target: GPR97 expressed in HEK-293T cells (unsorted transfectants and co-expression experiments) (human) (UniProt Q86Y34); test: flow cytometry on cells; FACS-based PR3-binding assay: HEK-293T transfectants (unsorted, or FACS-sorted by GFP level) incubated with purified PR3 5 μg/mL, 1 h, 4 °C; bound PR3 detected with anti-PR3 mAb; only the binder purified
[2] = target: GPR97-TM7-EGFP expressed in FACS-sorted HEK-293T cells (human) (UniProt Q86Y34); test: as above

B1: Human proteinase 3 (PR3), purified (enzyme, UniProt P24158 28-248)
chain: IVGGHEAQPHSRPYMASLQMRGNPGSHFCGGTLIHPSFVLTAAHCLRDIPQRLVNVVLGAHNVRTQEPTQQHFSVAQVFLNNYDAENKLNDVLLIQLSSPANLSASVATVQLPQQDQPVPHGTQCLAMGWGRVGAHDPPAQVLQELNVTVVTFFCRPHNICTFVPRRKAGICFGDSGGPLICDGIIQGIDSFVIWGCATRLFPDFFTRVALYVDWIRSTLR
binding [1]: binds
binding [2]: binds
